Measurements: paper PMC6558801

Biological target: T1, Flag-tagged PLEK2 (pleckstrin-2), stably expressed in NOZ cells (UniProt Q9NYT0)
T1 sequence: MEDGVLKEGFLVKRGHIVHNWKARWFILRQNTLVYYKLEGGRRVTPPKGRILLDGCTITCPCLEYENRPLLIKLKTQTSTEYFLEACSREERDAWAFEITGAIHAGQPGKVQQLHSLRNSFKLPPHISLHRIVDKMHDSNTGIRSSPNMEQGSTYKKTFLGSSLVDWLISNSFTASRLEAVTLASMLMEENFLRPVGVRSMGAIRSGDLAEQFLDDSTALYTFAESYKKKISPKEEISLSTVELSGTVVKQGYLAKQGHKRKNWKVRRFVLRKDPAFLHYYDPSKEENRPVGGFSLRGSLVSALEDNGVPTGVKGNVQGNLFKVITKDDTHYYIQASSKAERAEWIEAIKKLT
Assay: affinity purification with mass spectrometry; lysate of NOZ cells stably overexpressing Flag-PLEK2 against control cells; immunoprecipitation as in the co-IP method, eluates run on a gel and stained with coomassie, HPLC and Orbitrap Elite

- binding: binds
Substance: endogenous EGFR (epidermal growth factor receptor) of NOZ cells (from UniProt P00533 25-1210)

Results are given in words; binding and its absence hold for the method and conditions named. In cells and extracts the contact can be indirect. A yes stands for co-enrichment or nearness to the bait. Other partners may have been found. Tags and fused reporters may be left off the sequences shown.
